# Measured values reported in PubChem BioAssay AID445 (National Center for Advancing Translational Sciences (NCATS), 2006).
# Some of the results follow. Further columns of the screen follow, without active or inactive calls. Most of these compounds were active or inconclusive in the main read-out, so they are no random draw. Words in brackets tell the shape of the fitted curve; partial curves, single points and poor fits give uncertain potencies.
# Assay: IkB Signaling
# Details: ABC-DLBCL IkBa-CBG/CBR dual luciferase ratio (green luciferase fused to IkBa over red control in OCI-Ly3 lymphoma cells), 4 h
# Procedure, shortened: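 Luminescence ratio of IκBα-fused green versus native red beetle luciferase in OCI-Ly3 cells, 4 h post-doxycycline with compound; red signal alone, scaled from basal (0%) to zero light (-100%), flagged nonspecific or cytotoxic effects.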
# [1] = measured here: control luc red channel unless noted
smiles,measurement,setting,value
COc1ccc2[nH]c(C(=O)c3ccccc3)cc2c1,AC50,[1],"0.126 µM [rising, full curve]"
COc1ccc(Cl)cc1NS(=O)(=O)c1c(C)[nH]c(=O)[nH]c1=O,AC50,[1],"3.98 µM [rising, partial curve]"
Cc1ccc(O)c(NC(=O)CCSc2nc(-c3ccco3)cc(C(F)(F)F)n2)c1,AC50,measured here: IkB-luc green channel,"39.8 µM [rising, single point]"
same,AC50,measured here: control luc red channel,"39.8 µM [rising, single point]"
O=C(CN1C(=O)C2(SCC(=O)N2c2ccc(Cl)cc2)c2ccccc21)NCCc1ccccc1 (stereo not given),AC50,[1],"31.6 µM [falling, single point]"
Cc1ccc(-c2nc(C(=O)NC3CCCCCC3)no2)cc1,AC50,[1],"31.6 µM [falling, partial curve]"
CCc1cccc(NC(=O)c2cccc3c2C(=O)N(C2CCCCC2)C3)c1,AC50,[1],"1.26 µM [rising, full curve]"
COc1nnc(-c2ccc(N3CCCCC3)c(NC(=O)c3ccccc3)c2)c2ccccc12,AC50,[1],"10 µM [falling, partial curve]"
O=C(NCC(c1cccnc1)N1CCc2ccccc21)C(=O)Nc1ccccc1F (stereo not given),AC50,[1],"3.98 µM [falling, full curve]"
N#CC(=C1SC=CS1)c1nc(-c2ccccc2)cs1,AC50,[1],"20 µM [falling, single point]"
CCOC(=O)c1c(C)n(S(=O)(=O)c2ccc(C)cc2)c2ccc(NS(=O)(=O)c3ccc(C)cc3)cc12,AC50,[1],"0.631 µM [rising, full curve, poor fit]"
COc1ccc(-c2nnc(SC3CCOC3=O)n2C2CCCCC2)cc1OC (stereo not given),AC50,[1],"2 µM [falling, full curve]"
CCOC(=O)c1nnn(CC(=O)NC(=O)Nc2ccc(F)cc2)c1C(=O)OCC,AC50,[1],"0.0251 µM [falling, full curve, poor fit]"
COc1ccc(-n2c(Cc3cccn3C)nnc2SCC(=O)Nc2ccc(C)c(Cl)c2)cc1,AC50,[1],"15.8 µM [falling, partial curve]"
CCN(CC)C(=O)CSCC(=O)Nc1ccccc1,AC50,[1],"3.98 µM [falling, partial curve]"
O=C(NCc1ccccc1Cl)c1ccc(NC(=O)c2nsc3ccccc23)cc1,AC50,[1],"0.158 µM [falling, full curve]"
O=C(CCCCCN1C(=O)c2ccccc2C1=O)NC1CCCC1,AC50,[1],"15.8 µM [falling, partial curve] [measured here: IkB-luc green channel]"
CCOc1ccc2nc(N3CCC(C(=O)Nc4ccc(Br)cc4F)CC3)sc2c1,AC50,[1],"3.98 µM [falling, partial curve]"
CC1CCN(S(=O)(=O)c2ccc3c(ccn3CC(=O)NCc3ccc(N(C)C)cc3)c2)CC1,AC50,[1],"6.31 µM [falling, full curve]"
COc1ccc(Cl)cc1NC(=O)CN(c1ccccc1)S(=O)(=O)N(C)C,AC50,[1],"25.1 µM [falling, single point]"
Cc1c(C(=O)Nc2ccccc2Br)oc2ccc(S(=O)(=O)N3CCOCC3)cc12,AC50,[1],"15.8 µM [rising, partial curve]"
CCC1CN(C(=O)N2CCC(C(=O)N3CCN(c4ccc(F)cc4)CC3)CC2)c2ccccc2O1 (stereo not given),AC50,[1],"7.94 µM [falling, partial curve]"
Cc1ccc(NC(=O)C2CCN(C(=O)c3cnn(-c4ccccc4)c3-n3cccc3)CC2)cc1,AC50,[1],"12.6 µM [falling, single point]"
COc1ccc(S(=O)(=O)N2CCCC2C(=O)Nc2nc3c(s2)CCCC3)cc1 (stereo not given),AC50,[1],"25.1 µM [falling, partial curve]"
COc1ccc(NS(=O)(=O)c2ccc3c(c2)CCCN3C(=O)C2CCC2)cc1OC,AC50,[1],"39.8 µM [falling, single point]"
Cc1ccc(S(=O)(=O)Nc2ccc3nc(-c4cccn4C)[nH]c3c2)cc1,AC50,[1],"12.6 µM [falling, partial curve]"
COc1ccc(S(=O)(=O)Cc2ccc(C(=O)N3CCN(c4cc(C)ccc4C)CC3)o2)cc1,AC50,[1],"20 µM [falling, partial curve]"
O=C(Nc1cccc(-c2nc3ccccc3[nH]2)c1)c1c(F)cccc1F,AC50,[1],"31.6 µM [falling, single point]"
CCCNC(=O)c1c(NC(=O)c2ccc(C)cc2)sc2c1CCCCC2,AC50,[1],"39.8 µM [falling, single point]"
CN(C)CCCn1cc(C2=C(c3c[nH]c4ccccc34)C(=O)NC2=O)c2ccccc21,AC50,[1],"12.6 µM [falling, partial curve]"
CCOC(=O)c1c(C)oc2nc(C)nc(NCCCN3CCN(c4cc(Cl)ccc4C)CC3)c12,AC50,[1],"31.6 µM [falling, single point]"
CCOC(=O)c1cccc(NC(=O)Nc2ccc3c(c2)N(C)C(=O)c2ccccc2S3)c1,AC50,[1],"7.94 µM [falling, partial curve]"
COc1ccc2c(c1)CCc1c(C(=O)Nc3c(C)nn(Cc4c(Cl)cccc4Cl)c3C)noc1-2,AC50,[1],"2 µM [falling, partial curve]"
C/C(Cl)=C/Cn1c(NCCCn2ccnc2)nc2c1c(=O)[nH]c(=O)n2C,AC50,[1],"1.26 µM [rising, partial curve] [measured here: IkB-luc green channel]"
O=C(c1cccs1)c1cn(CCOc2ccc(F)cc2)c2ccccc12,AC50,[1],"10 µM [falling, partial curve]"
O=C(Cn1cnc2onc(-c3ccc(F)cc3)c2c1=O)N1CCN(c2ccccc2F)CC1,AC50,[1],"6.31 µM [rising, single point]"
O=C(O)Cc1sc(Nc2ccc(C(=O)O)cc2)nc1-c1ccccc1,AC50,[1],"0.1 µM [falling, full curve]"
COc1cc2ccccc2cc1C(=O)Nc1cccc(-c2nc3ccccc3o2)c1,AC50,[1],"6.31 µM [falling, full curve]"
CC(C(=O)NCc1cccc(Br)c1)n1ncn2cccc2c1=O (stereo not given),AC50,[1],"3.98 µM [falling, single point]"
Cc1ccc(NC(=O)c2c(C(=O)Nc3ccccc3)sc3nc(C)cc(=O)n23)cc1,AC50,[1],"12.6 µM [falling, partial curve]"

# Fetched one by one from the list above, two records:
smiles,measurement,setting,value
Cc1ccc(NC(=O)c2c(C(=O)Nc3ccccc3)sc3nc(C)cc(=O)n23)cc1,AC50,[1],"12.6 µM [falling, partial curve]"
CCOC(=O)c1cccc(NC(=O)Nc2ccc3c(c2)N(C)C(=O)c2ccccc2S3)c1,AC50,[1],"7.94 µM [falling, partial curve]"
